The target of experiment [1] is T1, native Rho (rhodanese) reporter enzyme (Bos taurus, UniProt P00586).
T1 sequence (P00586 2-297 limits assumed): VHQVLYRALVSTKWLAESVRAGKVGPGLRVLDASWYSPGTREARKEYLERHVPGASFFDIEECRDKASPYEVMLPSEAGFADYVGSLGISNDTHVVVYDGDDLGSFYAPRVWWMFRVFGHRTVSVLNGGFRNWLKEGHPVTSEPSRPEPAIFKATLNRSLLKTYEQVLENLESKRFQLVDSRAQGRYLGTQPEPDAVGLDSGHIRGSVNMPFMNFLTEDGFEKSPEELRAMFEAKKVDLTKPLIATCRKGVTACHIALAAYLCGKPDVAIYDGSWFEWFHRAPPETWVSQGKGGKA
Briefly: Native Rho enzymatic reporter counter-screen. The format is biochemical. (In general: The purpose of a counterscreen is to sort out artefacts and off-target activity.)

Experiment [2] has as its target T2, native MDH (malate dehydrogenase) reporter enzyme (Sus scrofa, UniProt P00346).
T2 sequence (P00346 25-338): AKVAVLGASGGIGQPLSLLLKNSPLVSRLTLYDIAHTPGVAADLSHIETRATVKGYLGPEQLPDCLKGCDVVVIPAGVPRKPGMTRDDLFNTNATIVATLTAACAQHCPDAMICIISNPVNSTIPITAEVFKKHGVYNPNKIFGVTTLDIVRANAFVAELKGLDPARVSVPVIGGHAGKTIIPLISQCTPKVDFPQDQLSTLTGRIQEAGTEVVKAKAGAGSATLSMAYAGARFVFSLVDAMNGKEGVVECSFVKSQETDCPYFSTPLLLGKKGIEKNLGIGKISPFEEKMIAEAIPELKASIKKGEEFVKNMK
In words: Native MDH enzymatic reporter counter-screen. The format is biochemical.

SMILES strings stand for the structures.

As a reminder, the IC50 is the concentration at which inhibition is half-maximal. The low end stands for greater potency, the high end for weaker potency. In turn, `CCCCCCCCCCCCCCCC[n+]1ccccc1` [Compound 8, Cetylpyridinium chloride] gave an IC50 in experiment [1] above 100 µM. In turn, `CC(C)(C)CC(C)(C)c1ccc(OCCOCC[N+](C)(C)Cc2ccccc2)cc1` [Compound 39, Benzethonium chloride] had an IC50 in experiment [2] above 63 µM.

In turn, `Oc1ccc2c3c1O[C@H]1[C@@H](O)CC[C@@]4(O)[C@@H](C2)N(CC2CCC2)CC[C@]314` [Compound 58, Nalbuphine] returned an IC50 in experiment [2] above 63 µM.

(Values after article PMC6450568 (Bioorganic & medicinal chemistry letters, 2019).)
